# Results from the supplement of paper PMC12889115.
# The list shows a part of the results. These are raw signals, not scaled to a control.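 First-pass screen: polymyxin B was added at a level that permeabilizes the Salmonella outer membrane while sparing the inner membrane. DMSO wells, with and without polymyxin B, defined maximum growth. Because plates differed from one another, each plate's data were ranked separately and the compounds with the lowest OD600 were carried forward as hits.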
# Tested on: Salmonella enterica serovar Typhimurium SL1344
# Assay: bacterial growth OD600 after 18 h with compound and polymyxin B; higher = more bacterial growth (less inhibition)
# Conditions: 50 µM, Mueller-Hinton broth
SMILES,bacterial growth OD600 (polymyxin B 0.75 µg/mL),bacterial growth OD600 (polymyxin B 1 µg/mL)
CC(=O)c1cccc(CN2CCC(C(=O)Nc3cccc(-c4nnc(C)s4)c3)CC2)c1,0.728,
CCCN1CCC(C(=O)Nc2ccc(-c3cccc(C)c3)cc2)CC1,,0.451
CCN(C)C(=O)C1CCCN(C2CCN(c3nc4ccccc4o3)CC2)C1 (stereo not drawn),0.816,
CCC(=O)N[C@@H]1c2ccccc2C2(CCN(C(=O)c3cccc(C)c3)CC2)[C@H]1OCc1cccnc1,0.805,
COc1cccc(CCC(=O)N2CCCC(c3nc(-c4cccnc4)ncc3-c3ccccc3F)C2)c1 (stereo not drawn),0.054,
O=C(NCC1Cc2cccc(-c3ncccn3)c2O1)c1ccccn1 (stereo not drawn),0.842,
O=C(/C=C/c1ccccc1)N1CCC(C2(c3ccccn3)NC(=O)N(CC3CCCO3)C2=O)CC1 (stereo not drawn),0.781,
Cc1cccc(-c2ccccc2C(=O)N2CC[C@@H](N3CCN(C)CC3)[C@H](O)C2)c1,,1
